The results in this text go back to patent publication US20210332111A1.

No constants are given. Whether binding was seen depends on the method and setting. Some binding calls cover weakened binding; strength is not graded here.

This assay addresses recombinant ZIKV DIII (domain III of the E protein, strain H/PF/2013, residues 299 to 407) (Zika virus, strain H/PF/2013). Description: co-crystal structure.

B1: ZV-48 scFv (scFv)
scFv: DIVMSQSPSSLAVSVGEKITMSCKSSQSLLYSNNEKNYLAWYQQKPGQSPKLLIYWASARDSGVPDRFTGSGSGTDFTLTISSVKAEDLAVFYCQQYYSYPYTFGGGTKLEIKGGGGSGGGGSGGGGSQVQLQQPGAELLKPGASVKLSCKASGYSFSNYWMHWVKQRPGQGPEWIGMIHPNSGNTKYNEKFKNKATLTVDKSSSMVYMQLSSLTSEDSAVFYCARLGNDMDYWGQGTSVTVSS
On to B1, for which the binding entry is listed as “binds”.
